Data published in US20090306454A1, “Devices and Methods for Stimulation of Tissue” (Stanford University, priority 2005, published 2009).
At least one compound was matched to its structure with a doubt left.

Assay: Chemical stability of Ach at body temperature (37 C, HPLC with UV detection)
Format: physicochemical
Details: control
Excerpt: To determine the stability of acetylcholine at 37 C to help guide the reservoir sizes and locations, aliquots of reference acetylcholine and standard strength Miochol-E (acetylcholine, injectable, Novartis Pharmaceuticals) were stored in sterile glass containers at 37 C.

SMILES: CC(=O)OCC[N+](C)(C)C [Control Ach, acetylcholine]
- Peak Area (Ach concentration by HPLC-UV): 58950
